Record: PubChem BioAssay AID1259308 (NCATS, 2017)
Assay: 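Knock-downs that increase output of a recombinant reporter protein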 (primary screen). Cells: human HEK293 embryonic kidney cells stably expressing firefly luciferase (HEK-CMV-Luc2-Hygro). Reagents: single siRNA against human genes, 0.8 pmol siRNA per well. Timing: 72 h. Measured: 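Luciferase light (ONE-Glo) measured on one replicate plate set and viability (CellTiter-Glo) on the other, scaled to a negative control siRNA, with robust z-scores and luciferase per cell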. Reading the numbers: total luciferase, z-score and total luciferase, % of control: higher = more reporter protein produced; luciferase per cell, z-score: higher = more reporter output per viable cell; viable cells, % of control: higher = more viable cells. Active means: 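An siRNA counts as active if its total luciferase robust z-score exceeds 3; genes with two or more such siRNAs out of three were retested with fresh siRNAs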. Calls: active = raised luciferase; inactive = no rise.
Here is a random part of about 59,000 reagents tested. Of all reagents, about 1,510 (2.6%) were called active. 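Calls use total luciferase alone and ignore viability, so some active siRNAs may act by altering cell number.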 The numbers tell different reagents against one gene apart.

| total luciferase, z-score | total luciferase, % of control | luciferase per cell, z-score | viable cells, % of control | activity call | gene | reagent no. |
| --- | --- | --- | --- | --- | --- | --- |
| -1.18 | 58.5 | -1.46 | 96.1 | inactive | CCBE1 (collagen and calcium binding EGF domains 1) | 1 |
| -1.21 | 57.8 | -0.424 | 72.2 | inactive | CCBE1 (collagen and calcium binding EGF domains 1) | 2 |
| 0.457 | 91 | 0.37 | 92.2 | inactive | CCBE1 (collagen and calcium binding EGF domains 1) | 3 |
| 0.463 | 91.1 | 0.441 | 90.6 | inactive | CNIH2 (cornichon family AMPA receptor auxiliary protein 2) | 1 |
| -0.655 | 68.9 | -1.15 | 104 | inactive | CNIH2 (cornichon family AMPA receptor auxiliary protein 2) | 2 |
| -1.15 | 59 | -1.15 | 89.2 | inactive | CNIH2 (cornichon family AMPA receptor auxiliary protein 2) | 3 |
| -0.158 | 78.7 | 0.956 | 68.4 | inactive | CNP (2',3'-cyclic nucleotide 3' phosphodiesterase) | 1 |
| -0.273 | 76.5 | -0.634 | 101 | inactive | CNP (2',3'-cyclic nucleotide 3' phosphodiesterase) | 2 |
| 0.258 | 87 | 0.78 | 79.2 | inactive | CNP (2',3'-cyclic nucleotide 3' phosphodiesterase) | 3 |

Continued (2 carried over from the part before).
| total luciferase, z-score | total luciferase, % of control | luciferase per cell, z-score | viable cells, % of control | activity call | gene | reagent no. |
| --- | --- | --- | --- | --- | --- | --- |
| -0.273 | 76.5 | -0.634 | 101 | inactive | CNP (2',3'-cyclic nucleotide 3' phosphodiesterase) | 2 |
| 0.258 | 87 | 0.78 | 79.2 | inactive | CNP (2',3'-cyclic nucleotide 3' phosphodiesterase) | 3 |
| -0.15 | 78.9 | -0.391 | 97.7 | inactive | BTBD9 (BTB domain containing 9) | 1 |
| 0.627 | 94.4 | 0.715 | 87.3 | inactive | BTBD9 (BTB domain containing 9) | 2 |
| -0.641 | 69.1 | -0.885 | 97.5 | inactive | BTBD9 (BTB domain containing 9) | 3 |
| -0.771 | 66.6 | -0.59 | 86.9 | inactive | ITCH (itchy E3 ubiquitin protein ligase) | 1 |
| 0.376 | 89.4 | 0.299 | 92.3 | inactive | ITCH (itchy E3 ubiquitin protein ligase) | 2 |
| -1.25 | 56.9 | -1.9 | 105 | inactive | ITCH (itchy E3 ubiquitin protein ligase) | 3 |
| -1.5 | 52 | -1.95 | 97.1 | inactive | RPL31P7 (ribosomal protein L31 pseudogene 7) | 1 |
| -0.116 | 79.6 | -0.0869 | 91 | inactive | RPL31P7 (ribosomal protein L31 pseudogene 7) | 2 |
| -1.58 | 50.5 | -1.82 | 91.2 | inactive | RPL31P7 (ribosomal protein L31 pseudogene 7) | 3 |
| -0.941 | 63.2 | -0.316 | 76.7 | inactive | FBXO36 (F-box protein 36) | 1 |
| 1.5 | 112 | 1.7 | 79.7 | inactive | FBXO36 (F-box protein 36) | 2 |
| 1.31 | 108 | 1.57 | 79.7 | inactive | FBXO36 (F-box protein 36) | 3 |
| 0.83 | 98.4 | 0.673 | 92.1 | inactive | OR6C74 (olfactory receptor family 6 subfamily C member 74) | 1 |
| -0.0349 | 81.2 | -0.549 | 105 | inactive | OR6C74 (olfactory receptor family 6 subfamily C member 74) | 2 |
| -0.808 | 65.8 | -1.53 | 110 | inactive | OR6C74 (olfactory receptor family 6 subfamily C member 74) | 3 |
